Measured values published in patent publication US20120121603A1 (THERACLONE SCIENCES, published 2012).
Results are given in words; binding and its absence hold for the method and conditions named. Some binding calls cover weakened binding; strength is not graded here.

Protein sequences, listed by entry. Tags and fused reporters are not part of them.
UniProt P06821: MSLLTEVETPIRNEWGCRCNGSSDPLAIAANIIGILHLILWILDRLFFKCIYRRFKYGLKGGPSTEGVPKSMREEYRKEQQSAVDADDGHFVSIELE

Key:
[1] = target: influenza A/Puerto Rico/8/34 (PR8) virus, M2 on virions (Influenza A virus A/Puerto Rico/8/34 (PR8)) (UniProt P06821); assay: ELISA, crude supernatant on PR8 virus coated plates
[2] = target: influenza A/Puerto Rico/8/34 (PR8) virus, M2 on virions (Influenza A virus A/Puerto Rico/8/34 (PR8)) (UniProt P06821); assay: binding to influenza virions
[3] = target: influenza A/Puerto Rico/8/34 (PR8) virus, M2 on virions (Influenza A virus A/Puerto Rico/8/34 (PR8)) (UniProt P06821); assay: ELISA, crude supernatant on influenza virus

Measured: binding

B1: 23K12 (antibody, V domains shown)
VH: EVQLVESGGGLVQPGGSLRISCAASGFTVSSNYMSWVRQAPGKGLEWVSVIYSGGSTYYADSVKGRFSFSRDNSKNTVFLQMNSLRAEDTAVYYCARCLSRMRGYGLDVWGQGTTVTVS
VL: DIQMTQSPSSLSASVGDRVTITCRTSQSISSYLNWYQQKPGKAPKLLIYAASSLQSGVPSRFSGSGSGTDFTLTISGLQPEDFATYYCQQSYSMPAFGQGTKLEIK
binds: [1] | [2] | [3]
